Assay results taken from PMC5575278.
These are yes or no findings as the source states them, for the method shown. Some binding calls cover weakened binding; strength is not graded here.

Target: T1, BBS4 (UniProt Q96RK4)
T1 sequence: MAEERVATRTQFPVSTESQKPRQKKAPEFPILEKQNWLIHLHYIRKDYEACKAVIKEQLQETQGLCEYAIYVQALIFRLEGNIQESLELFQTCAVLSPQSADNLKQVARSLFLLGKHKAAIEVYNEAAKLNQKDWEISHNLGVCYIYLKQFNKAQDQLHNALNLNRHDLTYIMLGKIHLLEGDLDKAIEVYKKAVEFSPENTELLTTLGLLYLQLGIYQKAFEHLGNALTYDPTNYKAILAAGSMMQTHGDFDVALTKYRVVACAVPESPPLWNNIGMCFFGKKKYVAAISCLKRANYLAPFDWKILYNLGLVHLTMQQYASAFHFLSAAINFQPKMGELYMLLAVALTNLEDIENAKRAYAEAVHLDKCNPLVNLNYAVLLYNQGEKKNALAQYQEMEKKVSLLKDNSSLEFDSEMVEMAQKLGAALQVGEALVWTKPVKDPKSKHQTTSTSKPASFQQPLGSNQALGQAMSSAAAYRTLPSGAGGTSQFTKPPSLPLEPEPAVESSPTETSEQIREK
Assay: two-hybrid; Cytotrap cytoplasmic yeast two-hybrid (Stratagene); screen of a human fetal brain library with full length BBS4 as bait; prey in the pMyr vector

- binding: binds
B1: FSTL1 prey construct (residue E56 to the stop codon) (domain or fragment, UniProt Q12841-1 56-308)
chain: EQCKPHKRPVCGSNGKTYLNHCELHRDACLTGSKIQVDYDGHCKEKKSVSPSASPVVCYQSNRDELRRRIIQWLEAEIIPDGWFSKGSNYSEILDKYFKNFDNGDSRLDSSEFLKFVEQNETAINITTYPDQENNKLLRGLCVDALIELSDENADWKLSFQEFLKCLNPSFNPPEKKCALEDETYADGAETEVDCNRCVCACGNWVCTAMTCDGKNQKGAQTQTEEEMTRYVQELQKHQETAEKTKRVSTKEI
